This passage reports binding results from paper PMC3404119.

Results are given in words; binding and its absence hold for the method and conditions named. Binding can be weak; no strength is given. For some assays here: In cells and extracts the contact can be indirect.

Assay [1] deals with T1, Hes6 (zebrafish) (UniProt Q6P0J1).
T1 sequence: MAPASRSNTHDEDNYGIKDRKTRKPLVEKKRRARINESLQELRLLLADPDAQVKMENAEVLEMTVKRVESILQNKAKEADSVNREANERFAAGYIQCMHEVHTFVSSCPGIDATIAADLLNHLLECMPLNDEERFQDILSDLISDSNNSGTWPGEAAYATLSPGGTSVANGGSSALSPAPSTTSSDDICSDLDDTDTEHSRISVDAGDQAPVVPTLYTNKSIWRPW
Description: co-IP; GFP-tagged Her1, Her7 or Hes6 co-expressed with mCherry-tagged proteins in an in vitro transcription-translation system; immunoprecipitation with a GFP antibody, immunoblot for mCherry. In general terms: Immunoblotting shows a protein as a band on a membrane.

Assay [2] deals with T1, Hes6 (zebrafish). Nature of the assay: MITOMI (mechanically induced trapping of molecular interactions); GFP-tagged Her protein from wheat germ extract immobilised on the microfluidic chip surface with anti-GFP antibody and washed with PBS; mCherry-tagged protein expressed on chip in wheat germ extract with 250 nM Cy5-labelled DNA oligomer; 3 h at room temperature; slope of free against bound mCherry signal as relative affinity.

In a further assay the target is Her1 (zebrafish). Description: co-IP; GFP-tagged Her1, Her7 or Hes6 co-expressed with mCherry-tagged proteins in an in vitro transcription-translation system; immunoprecipitation with a GFP antibody, immunoblot for mCherry.
The target of assay [3] is Her7 (zebrafish). The description is as above.
Assay [4] has as its target Her7 (zebrafish). Nature of the assay: MITOMI (mechanically induced trapping of molecular interactions); GFP-tagged Her protein from wheat germ extract immobilised on the microfluidic chip surface with anti-GFP antibody and washed with PBS; mCherry-tagged protein expressed on chip in wheat germ extract with 250 nM Cy5-labelled DNA oligomer; 3 h at room temperature; slope of free against bound mCherry signal as relative affinity.

On to Her1 (zebrafish), for which the binding entry with Hes6 (zebrafish) [1] and in the assay with Hes6 (zebrafish) [2] was “binds” in each case.
For the molecule Her7 (zebrafish), the binding entry with Hes6 (zebrafish) [1] and with Hes6 (zebrafish) [2] was “binds” each time.
Take “PPARγ (peroxisome proliferator-activated receptor gamma)”: the binding entry with Hes6 (zebrafish) [1] is “no binding”.

B1: Hes6 (protein, UniProt Q6P0J1 1-226)
chain: MAPASRSNTHDEDNYGIKDRKTRKPLVEKKRRARINESLQELRLLLADPDAQVKMENAEVLEMTVKRVESILQNKAKEADSVNREANERFAAGYIQCMHEVHTFVSSCPGIDATIAADLLNHLLECMPLNDEERFQDILSDLISDSNNSGTWPGEAAYATLSPGGTSVANGGSSALSPAPSTTSSDDICSDLDDTDTEHSRISVDAGDQAPVVPTLYTNKSIWRPW
Consider B1, for which the binding entry in the assay with Her1 (zebrafish), with Her7 (zebrafish) [3] and in the assay with Her7 (zebrafish) [4] was “binds” in each case.
